Measured values: US10010629B2, “Compositions and methods for in vivo imaging” (The Regents of the University of California, priority 2010, dated 2018)
“Also recorded” adds a separate entry of the source. For at least one compound, name, drawing or mass did not settle the structure.

Tests used:
[1] = tested on: FFA-luc uptake by 3T3-L1 adipocytes; experiment: FFA-SS-Luc competition assay; assay type: cell-based; conditions: 20 μM FFA-luc, excess competitor (0-2 mM titration)
Protocol: FFA-SS-Luc competition assay: 3T3-L1-luc adipocytes were seeded into black-wall/clear-bottom-96-well plates (Costar) and treated with 100 μl fatty acid uptake buffer including 20 μM FFA-luc and a titration of 0-2 mM oleate or methyl-oleate immediately prior to imaging.

[2] = tested on: L2G85 mice; experiment: Competition of intestinal FFA-luc uptake by oleate in the gavage medium; assay type: in vivo; conditions: 200 fold excess of oleate over FFA-luc in gavage medium

## CCCCCCCC/C=C\CCCCCCCC(=O)O [oleate]
[1]
  competition with FFA-luc uptake by adipocytes: compete with FFA-luc uptake; also recorded: inhibited uptake
[2]
  effect on intestinal FFA-luc signal: significantly reduced signal intensity and delayed uptake kinetics
